The chains behind the UniProt entries cited, without tags or fusion partners. Where a name states a change or a piece, a line headed by the entry shows the natural chain unless it says otherwise. A line that says so, or that is headed by a name, gives the form on record, which may keep a tag or linker. Residues count along the entry.
UniProt Q8BMS1, residues 37-763: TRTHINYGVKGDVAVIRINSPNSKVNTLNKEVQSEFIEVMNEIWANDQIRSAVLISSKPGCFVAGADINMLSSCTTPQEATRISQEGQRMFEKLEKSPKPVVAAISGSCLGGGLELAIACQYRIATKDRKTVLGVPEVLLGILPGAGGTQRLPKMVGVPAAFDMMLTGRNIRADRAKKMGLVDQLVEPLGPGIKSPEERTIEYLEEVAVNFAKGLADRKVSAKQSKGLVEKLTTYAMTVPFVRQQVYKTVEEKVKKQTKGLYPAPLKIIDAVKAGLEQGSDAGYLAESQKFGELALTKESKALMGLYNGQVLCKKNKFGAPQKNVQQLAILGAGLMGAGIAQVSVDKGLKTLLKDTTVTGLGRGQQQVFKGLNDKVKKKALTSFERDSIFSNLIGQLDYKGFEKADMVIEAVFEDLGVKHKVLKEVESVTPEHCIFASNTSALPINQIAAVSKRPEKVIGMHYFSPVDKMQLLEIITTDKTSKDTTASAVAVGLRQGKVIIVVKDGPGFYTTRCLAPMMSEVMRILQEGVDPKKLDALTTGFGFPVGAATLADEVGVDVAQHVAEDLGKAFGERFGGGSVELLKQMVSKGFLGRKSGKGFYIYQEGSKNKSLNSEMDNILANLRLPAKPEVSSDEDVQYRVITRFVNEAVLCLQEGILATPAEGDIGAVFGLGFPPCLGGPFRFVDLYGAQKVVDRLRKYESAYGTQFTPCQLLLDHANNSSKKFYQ
Atp2a2 (mouse) (O55143-2, form named): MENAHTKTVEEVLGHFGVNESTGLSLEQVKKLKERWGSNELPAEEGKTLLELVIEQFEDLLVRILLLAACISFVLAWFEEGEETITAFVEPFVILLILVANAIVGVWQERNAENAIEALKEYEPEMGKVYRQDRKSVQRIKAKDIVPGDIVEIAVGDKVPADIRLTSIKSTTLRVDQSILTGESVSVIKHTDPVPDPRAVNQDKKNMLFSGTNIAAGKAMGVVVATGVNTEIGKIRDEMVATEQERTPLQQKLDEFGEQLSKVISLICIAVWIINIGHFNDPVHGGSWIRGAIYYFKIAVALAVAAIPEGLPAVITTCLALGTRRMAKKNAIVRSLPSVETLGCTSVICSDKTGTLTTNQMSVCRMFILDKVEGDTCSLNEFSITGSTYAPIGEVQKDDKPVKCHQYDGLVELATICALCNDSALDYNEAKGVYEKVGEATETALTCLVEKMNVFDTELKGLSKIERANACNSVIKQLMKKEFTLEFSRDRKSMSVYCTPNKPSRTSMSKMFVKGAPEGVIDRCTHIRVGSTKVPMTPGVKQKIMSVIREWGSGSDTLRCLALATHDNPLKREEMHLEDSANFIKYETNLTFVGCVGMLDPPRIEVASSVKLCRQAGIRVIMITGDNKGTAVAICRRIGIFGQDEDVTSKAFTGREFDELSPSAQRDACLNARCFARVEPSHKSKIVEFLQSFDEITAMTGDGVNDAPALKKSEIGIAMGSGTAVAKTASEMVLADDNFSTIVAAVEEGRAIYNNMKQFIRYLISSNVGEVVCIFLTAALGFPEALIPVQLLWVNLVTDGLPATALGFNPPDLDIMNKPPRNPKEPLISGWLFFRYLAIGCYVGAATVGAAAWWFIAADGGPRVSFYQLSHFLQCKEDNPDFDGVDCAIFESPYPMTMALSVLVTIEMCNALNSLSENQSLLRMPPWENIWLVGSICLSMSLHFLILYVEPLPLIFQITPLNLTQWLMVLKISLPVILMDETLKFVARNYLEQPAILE
UniProt Q03265, residues 44-553: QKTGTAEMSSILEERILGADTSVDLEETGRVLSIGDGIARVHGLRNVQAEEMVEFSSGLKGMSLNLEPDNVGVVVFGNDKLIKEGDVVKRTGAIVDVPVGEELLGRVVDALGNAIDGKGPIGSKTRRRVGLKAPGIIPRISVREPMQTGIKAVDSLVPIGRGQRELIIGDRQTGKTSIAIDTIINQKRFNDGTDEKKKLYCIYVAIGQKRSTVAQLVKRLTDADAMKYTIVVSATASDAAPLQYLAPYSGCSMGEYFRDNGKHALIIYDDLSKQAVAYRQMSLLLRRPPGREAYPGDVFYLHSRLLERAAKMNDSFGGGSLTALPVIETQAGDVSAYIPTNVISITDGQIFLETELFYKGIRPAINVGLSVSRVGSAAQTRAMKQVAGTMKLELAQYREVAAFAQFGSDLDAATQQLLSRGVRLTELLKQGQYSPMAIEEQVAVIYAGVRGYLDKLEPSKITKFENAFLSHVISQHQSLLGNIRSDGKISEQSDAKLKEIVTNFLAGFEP
UniProt A2A5R2: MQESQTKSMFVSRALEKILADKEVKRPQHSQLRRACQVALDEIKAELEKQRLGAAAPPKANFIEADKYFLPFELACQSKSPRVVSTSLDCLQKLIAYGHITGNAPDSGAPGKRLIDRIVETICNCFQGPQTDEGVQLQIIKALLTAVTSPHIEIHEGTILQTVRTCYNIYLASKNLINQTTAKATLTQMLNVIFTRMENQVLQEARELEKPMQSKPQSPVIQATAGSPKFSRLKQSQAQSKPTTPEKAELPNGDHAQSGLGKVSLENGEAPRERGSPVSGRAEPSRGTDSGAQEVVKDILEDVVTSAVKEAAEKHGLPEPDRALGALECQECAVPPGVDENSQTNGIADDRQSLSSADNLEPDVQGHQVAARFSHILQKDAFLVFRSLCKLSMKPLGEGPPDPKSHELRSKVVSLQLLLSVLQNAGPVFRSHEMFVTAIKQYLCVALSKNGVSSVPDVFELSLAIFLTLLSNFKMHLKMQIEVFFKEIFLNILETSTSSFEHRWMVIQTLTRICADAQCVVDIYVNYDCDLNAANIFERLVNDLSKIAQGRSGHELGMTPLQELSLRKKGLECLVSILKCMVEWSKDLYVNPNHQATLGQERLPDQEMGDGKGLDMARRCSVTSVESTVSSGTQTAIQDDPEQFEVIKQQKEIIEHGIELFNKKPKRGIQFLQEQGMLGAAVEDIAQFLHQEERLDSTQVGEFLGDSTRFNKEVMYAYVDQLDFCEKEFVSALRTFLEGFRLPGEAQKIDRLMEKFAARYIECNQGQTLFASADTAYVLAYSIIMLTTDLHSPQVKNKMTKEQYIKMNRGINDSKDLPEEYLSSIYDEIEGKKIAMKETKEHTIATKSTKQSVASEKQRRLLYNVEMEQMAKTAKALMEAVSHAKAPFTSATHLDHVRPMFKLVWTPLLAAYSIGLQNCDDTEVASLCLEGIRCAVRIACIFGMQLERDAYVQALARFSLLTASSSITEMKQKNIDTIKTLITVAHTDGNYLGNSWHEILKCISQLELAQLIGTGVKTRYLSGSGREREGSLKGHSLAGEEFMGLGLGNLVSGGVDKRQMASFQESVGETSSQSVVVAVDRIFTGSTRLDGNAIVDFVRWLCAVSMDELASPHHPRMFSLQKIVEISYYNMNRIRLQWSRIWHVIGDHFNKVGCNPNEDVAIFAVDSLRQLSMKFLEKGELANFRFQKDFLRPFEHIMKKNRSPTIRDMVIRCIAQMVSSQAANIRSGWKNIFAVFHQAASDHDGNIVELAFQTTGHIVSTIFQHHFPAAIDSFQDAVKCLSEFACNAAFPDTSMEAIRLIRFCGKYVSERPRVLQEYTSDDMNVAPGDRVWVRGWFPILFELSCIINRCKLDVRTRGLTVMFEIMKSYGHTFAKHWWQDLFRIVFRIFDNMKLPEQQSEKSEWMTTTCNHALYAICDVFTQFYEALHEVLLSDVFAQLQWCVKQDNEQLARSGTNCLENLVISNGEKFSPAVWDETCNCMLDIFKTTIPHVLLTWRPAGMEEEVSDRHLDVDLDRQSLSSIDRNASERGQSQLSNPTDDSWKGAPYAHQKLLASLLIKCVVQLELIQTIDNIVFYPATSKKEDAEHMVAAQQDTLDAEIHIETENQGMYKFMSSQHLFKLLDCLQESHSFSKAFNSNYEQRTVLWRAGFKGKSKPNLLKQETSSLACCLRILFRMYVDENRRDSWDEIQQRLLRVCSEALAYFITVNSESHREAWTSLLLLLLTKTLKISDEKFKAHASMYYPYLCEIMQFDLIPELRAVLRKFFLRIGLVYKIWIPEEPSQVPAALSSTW
UniProt P13010: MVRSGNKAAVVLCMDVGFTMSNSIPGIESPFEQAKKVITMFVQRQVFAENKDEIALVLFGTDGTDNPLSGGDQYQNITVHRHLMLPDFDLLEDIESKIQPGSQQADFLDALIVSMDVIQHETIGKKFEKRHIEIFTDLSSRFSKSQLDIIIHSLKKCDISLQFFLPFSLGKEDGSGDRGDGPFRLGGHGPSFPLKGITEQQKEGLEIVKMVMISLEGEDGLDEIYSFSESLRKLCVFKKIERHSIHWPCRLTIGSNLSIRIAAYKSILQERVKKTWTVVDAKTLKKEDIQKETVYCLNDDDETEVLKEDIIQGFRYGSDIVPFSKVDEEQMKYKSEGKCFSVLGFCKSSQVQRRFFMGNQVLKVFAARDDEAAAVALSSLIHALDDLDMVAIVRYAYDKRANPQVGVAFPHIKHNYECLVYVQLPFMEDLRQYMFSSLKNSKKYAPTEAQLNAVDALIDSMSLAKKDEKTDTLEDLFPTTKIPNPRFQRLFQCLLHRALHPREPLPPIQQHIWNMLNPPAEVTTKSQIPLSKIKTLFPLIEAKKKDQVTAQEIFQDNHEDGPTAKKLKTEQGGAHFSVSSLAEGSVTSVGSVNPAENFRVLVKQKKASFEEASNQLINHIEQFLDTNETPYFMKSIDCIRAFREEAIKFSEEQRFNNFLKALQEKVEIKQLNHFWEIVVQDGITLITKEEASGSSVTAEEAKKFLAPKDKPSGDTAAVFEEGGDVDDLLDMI
UniProt P09874: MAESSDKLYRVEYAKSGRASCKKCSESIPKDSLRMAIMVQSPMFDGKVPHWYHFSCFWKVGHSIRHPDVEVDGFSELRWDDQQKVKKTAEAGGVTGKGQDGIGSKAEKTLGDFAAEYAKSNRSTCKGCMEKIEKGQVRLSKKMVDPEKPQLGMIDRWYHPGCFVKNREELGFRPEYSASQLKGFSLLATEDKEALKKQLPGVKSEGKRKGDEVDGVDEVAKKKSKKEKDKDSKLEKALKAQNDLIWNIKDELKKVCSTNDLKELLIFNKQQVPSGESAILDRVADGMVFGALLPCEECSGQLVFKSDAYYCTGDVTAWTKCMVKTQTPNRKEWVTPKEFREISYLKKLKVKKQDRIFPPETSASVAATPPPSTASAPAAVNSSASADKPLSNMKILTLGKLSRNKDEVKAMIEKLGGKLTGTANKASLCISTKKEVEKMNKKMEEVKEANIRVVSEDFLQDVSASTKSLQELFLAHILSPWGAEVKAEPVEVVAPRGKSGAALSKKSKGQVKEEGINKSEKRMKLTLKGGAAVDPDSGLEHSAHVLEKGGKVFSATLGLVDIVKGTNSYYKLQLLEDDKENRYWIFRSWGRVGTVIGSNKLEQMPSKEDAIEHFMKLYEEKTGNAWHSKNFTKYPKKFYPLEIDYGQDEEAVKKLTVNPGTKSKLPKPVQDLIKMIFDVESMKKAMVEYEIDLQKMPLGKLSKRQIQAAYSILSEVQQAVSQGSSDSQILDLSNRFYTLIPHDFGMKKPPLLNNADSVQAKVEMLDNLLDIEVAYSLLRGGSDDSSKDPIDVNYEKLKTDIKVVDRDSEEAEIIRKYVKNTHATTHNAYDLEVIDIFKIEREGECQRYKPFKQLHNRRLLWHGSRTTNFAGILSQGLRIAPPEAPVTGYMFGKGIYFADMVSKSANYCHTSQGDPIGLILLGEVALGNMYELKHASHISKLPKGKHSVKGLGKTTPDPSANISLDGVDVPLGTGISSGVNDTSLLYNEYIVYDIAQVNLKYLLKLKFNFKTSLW

Results are given in words; binding and its absence hold for the method and conditions named. Binding seen in cells or lysates may run through a third protein. A yes stands for co-enrichment or nearness to the bait. Other partners may have been found. Sequences can lack the tags named with a protein.
What follows are substances tested against T1, GST-dysbindin-1 (mouse) (mouse) (UniProt Q91WZ8) (assay: affinity purification with mass spectrometry; GST-dysbindin-1 (mouse) on glutathione Sepharose 4B incubated 3 h at 4°C with precleared mouse skeletal muscle homogenate in lysis buffer; specific CBB bands identified by MALDI-TOF-MS; only the target purified).
T1 sequence: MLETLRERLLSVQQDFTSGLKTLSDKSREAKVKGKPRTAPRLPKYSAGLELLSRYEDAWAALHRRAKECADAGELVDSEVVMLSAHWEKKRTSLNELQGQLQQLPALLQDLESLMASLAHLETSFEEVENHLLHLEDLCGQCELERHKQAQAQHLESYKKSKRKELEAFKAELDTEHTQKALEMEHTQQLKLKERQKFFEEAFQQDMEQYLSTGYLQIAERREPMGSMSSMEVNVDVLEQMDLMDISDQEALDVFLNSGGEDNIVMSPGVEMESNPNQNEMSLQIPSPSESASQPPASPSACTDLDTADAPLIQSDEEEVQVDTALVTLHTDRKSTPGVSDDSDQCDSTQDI
“Hadha (mouse) (from UniProt Q8BMS1 37-763)” was tested, and the binding was “binds”.
“Atp2a2 (mouse) (from UniProt O55143-2 1-998)” was tested, and the binding was “binds”.
In the case of “Atp5a1 (mouse) (from UniProt Q03265 44-553)”, the binding was “binds”.
“Arfgef2 (mouse) (from UniProt A2A5R2 1-1792)” was tested, and the binding was “binds”.

What follows are substances tested against T2, GST-dysbindin-1 (human, isoform A) (human) (UniProt Q96EV8) (assay: affinity purification with mass spectrometry; GST or GST-dysbindin-1 (human isoform A) on glutathione Sepharose 4B incubated 3 h at 4°C with precleared SH-SY5Y lysate (50 mM Tris-HCl pH 7.5, 150 mM NaCl, 1 mM EDTA, 1% Triton X-100); four washes; SDS-PAGE, CBB bands identified by MALDI-TOF-MS peptide mass fingerprinting; only the target …).
T2 sequence: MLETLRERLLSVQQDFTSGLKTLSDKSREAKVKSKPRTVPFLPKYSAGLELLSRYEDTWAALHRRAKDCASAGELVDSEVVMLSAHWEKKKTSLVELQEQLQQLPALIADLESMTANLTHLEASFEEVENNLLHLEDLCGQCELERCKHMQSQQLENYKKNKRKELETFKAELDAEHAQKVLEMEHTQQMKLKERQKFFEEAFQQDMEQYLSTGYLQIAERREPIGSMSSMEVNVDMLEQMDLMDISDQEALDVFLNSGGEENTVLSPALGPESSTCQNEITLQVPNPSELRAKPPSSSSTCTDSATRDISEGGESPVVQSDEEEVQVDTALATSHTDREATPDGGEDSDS
In the case of “DNA-dependent protein kinase catalytic subunit (DNA-PKcs) (from UniProt P78527-1 1-4128) (enzyme)”, the binding was “binds”.
In the case of “ATP-dependent DNA helicase 2 (Ku80), endogenous (from UniProt P13010 1-732)”, the binding was “binds”.
“poly (ADP-ribose) polymerase family, member 1 (PARP1) (from UniProt P09874 1-1014) (enzyme)” was tested, and the binding was “binds”.

Reference: publication PMC2614472
